In patent US20190374607A1:
These are yes or no findings as the source states them, for the method shown. In cells and extracts the contact can be indirect. Some binding calls cover weakened binding; strength is not graded here.

Molecular target: atypical chemokine receptor 3 (ACKR3), P25106
Assay: proximity ligation assay on hPPAEC
Conditions: remark: other sources report otherwise

B1: chemokine (C-X-C) motif receptor (CXCR) 4, P61073 1-352 (receptor, UniProt P61073 1-352, looked up)
chain: MEGISIYTSDNYTEEMGSGDYDSMKEPCFREENANFNKIFLPTIYSIIFLTGIVGNGLVILVMGYQKKLRSMTDKYRLHLSVADLLFVITLPFWAVDAVANWYFGNFLCKAVHVIYTVNLYSSVLILAFISLDRYLAIVHATNSQRPRKLLAEKVVYVGVWIPALLLTIPDFIFANVSEADDRYICDRFYPNDLWVVVFQFQHIMVGLILPGIVILSCYCIIISKLSHSKGHQKRKALKTTVILILAFFACWLPYYIGISIDSFILLEIIKQGCEFENTVHKWISITEALAFFHCCLNPILYAFLGAKFKTSAQHALTSVSRGSSLKILSKGKRGGHSSVSTESESSSFHSS
- binding: binds
